Source: paper PMC12431856
For at least one entry, the source does not settle the construct or the ends of the probe. At least one verdict rests on a figure or table, not on a statement of the authors.

By UniProt entry, the sequences of proteins in these tests, tags left out. Residues count along the entry.
UniProt C9JLR9, 81-172: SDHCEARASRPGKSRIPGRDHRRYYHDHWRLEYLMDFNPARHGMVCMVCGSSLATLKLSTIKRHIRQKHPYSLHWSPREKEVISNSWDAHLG

Biological target: MBP-ZF1 (UniProt C9JLR9)
Assay: fluorescence polarization
Conditions: FP: 25 mM citrate pH 5.6, 150 mM NaCl, 0.5 mM TCEP, 100 nM DNA, 15 nM-7.5 uM protein, 20 min, room temperature; recombinant protein; residues 81-172; protein details: N-terminal His6-MBP with TEV site; label: 5'-Cy5 on top strand

Sequence: GATCCATGGCCCCATGGATG (double strand) [Cy5 PLAGL motif DNA]
- binding result: binds
